Source: article PMC5217004
No constants are given. Whether binding was seen depends on the method and setting. Binding seen in cells or lysates may run through a third protein. Some entries that bind do so weakly or less than the wild type.

Sequences of proteins named here, by UniProt entry; tags and fusion partners are left off.
UniProt P45973: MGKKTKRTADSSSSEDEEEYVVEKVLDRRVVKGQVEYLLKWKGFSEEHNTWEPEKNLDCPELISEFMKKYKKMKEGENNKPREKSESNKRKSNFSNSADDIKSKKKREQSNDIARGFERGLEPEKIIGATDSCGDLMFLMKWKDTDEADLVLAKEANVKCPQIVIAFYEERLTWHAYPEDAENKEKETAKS

Target: Heterochromatin protein 1α (human (endogenous in Hucct1)) (UniProt P45973)
Assay: co-IP; 200 μg Hucct1 protein extract with 2.5 μg anti-HP1α antibodies on 20 μl Protein A + G Agarose beads, rotation overnight at 4°C; Western blot of the precipitate; goat normal IgG as control

binding: binds
B1: SUV39H1 (enzyme, UniProt O43463 1-412)
chain: MAENLKGCSVCCKSSWNQLQDLCRLAKLSCPALGISKRNLYDFEVEYLCDYKKIREQEYYLVKWRGYPDSESTWEPRQNLKCVRILKQFHKDLERELLRRHHRSKTPRHLDPSLANYLVQKAKQRRALRRWEQELNAKRSHLGRITVENEVDLDGPPRAFVYINEYRVGEGITLNQVAVGCECQDCLWAPTGGCCPGASLHKFAYNDQGQVRLRAGLPIYECNSRCRCGYDCPNRVVQKGIRYDLCIFRTDDGRGWGVRTLEKIRKNSFVMEYVGEIITSEEAERRGQIYDRQGATYLFDLDYVEDVYTVDAAYYGNISHFVNHSCDPNLQVYNVFIDNLDERLPRIAFFATRTIRAGEELTFDYNMQVDPVDMESTRMDSNFGLAGLPGSPKKRVRIECKCGTESCRKYLF
